Data as given in PubChem BioAssay AID602203 (INSERM, 2012)

Assay: 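Follow-up of knock-downs that sensitize or protect A549 cells against cisplatin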 (follow-up of hits)
Cells: human A549 lung cancer cells
Reagent: siRNA pair against human genes
Conditions: cisplatin at a dose killing half of control-siRNA cells, given 48 h after transfection
Measurement: 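Two siRNAs per gene scored +1 protective, -1 sensitizing, 0 if toxic by LDH or growth-reducing by WST-1; cisplatin given 48 h later at 50% control kill; scores summed, mean death shift versus control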
Direction: summed siRNA score for cisplatin death: higher = more siRNAs reduced cisplatin-induced cell death; change in cisplatin death versus control: higher = fewer cells died than in control
Units: change in cisplatin death versus control in percentage points
Hit rule: In these data the active calls have summed siRNA score for cisplatin death at about -3 or lower, or at about 3 or higher
Here is a random part of 999 reagents. Of all reagents, 85 (8.5%) were called active. 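Unclear how single-siRNA scores of -1, 0 or +1 give the printed -4 to 4 range; calls lie near -3 or 3 and beyond.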 Entries without a mark were called inactive. The record does not give: the amount of reagent, the time to read-out, the dose of the treatment.

With knock-down of ARIH1 (GeneID 25820), the record shows summed siRNA score for cisplatin death -1.
For TMEM35A (GeneID 59353), the entry reads summed siRNA score for cisplatin death 1.
After knock-down of TBPL1 (GeneID 9519), the record shows summed siRNA score for cisplatin death 1.
Knock-down of BTNL2 (GeneID 56244) resulted in: summed siRNA score for cisplatin death -3 (active); change in cisplatin death versus control -12.6.
Silencing of CACNA1H (GeneID 8912) came out at: summed siRNA score for cisplatin death -1.
For SERPINB8 (GeneID 5271), the entry reads summed siRNA score for cisplatin death 1.
EPM2A (GeneID 7957) gave summed siRNA score for cisplatin death 0.
For SCN11A (GeneID 11280) the deposit lists summed siRNA score for cisplatin death 1.
Depletion of HGD (GeneID 3081) came out at: summed siRNA score for cisplatin death -3 (active); change in cisplatin death versus control -10.4.
DLGAP5 (GeneID 9787) showed summed siRNA score for cisplatin death -1.
Against EGR3 (GeneID 1960), the values are summed siRNA score for cisplatin death 1.
With knock-down of TTLL4 (GeneID 9654), the record shows summed siRNA score for cisplatin death -1.
For ARFIP2 (GeneID 23647) the deposit lists summed siRNA score for cisplatin death -1.
For SLC39A5 (GeneID 283375), the values are summed siRNA score for cisplatin death 3 (active); change in cisplatin death versus control 11.
Knock-down of KCNJ6 (GeneID 3763) came out at: summed siRNA score for cisplatin death -2.
After knock-down of LOC389264 the results were summed siRNA score for cisplatin death 1.
Silencing of TSPAN33 (GeneID 340348) gave: summed siRNA score for cisplatin death -1.
For TP53TG1 (GeneID 11257), the values are summed siRNA score for cisplatin death 2.
After knock-down of CDC6 (GeneID 990), the screen gave summed siRNA score for cisplatin death -1.
After knock-down of IL32 (GeneID 9235), the screen gave summed siRNA score for cisplatin death -1.
CLDN3 (GeneID 1365) gave summed siRNA score for cisplatin death -2.
Against SLC25A43 (GeneID 203427), the values are summed siRNA score for cisplatin death 0.
BAIAP3 (GeneID 8938) gave summed siRNA score for cisplatin death -3 (active); change in cisplatin death versus control -2.3.
After knock-down of KU-MEL-3 (GeneID 497048) the results were summed siRNA score for cisplatin death 1.
After knock-down of RRAD (GeneID 6236) the results were summed siRNA score for cisplatin death -3 (active); change in cisplatin death versus control -11.
After knock-down of DKK1 (GeneID 22943), the screen gave summed siRNA score for cisplatin death -2.
Silencing of LOC441687 gave: summed siRNA score for cisplatin death 0.
Knock-down of LOC342972 gave: summed siRNA score for cisplatin death 3 (active); change in cisplatin death versus control 13.1.
Against C1QL3 (GeneID 389941), the entry reads summed siRNA score for cisplatin death 0.
Silencing of SRPRB (GeneID 58477) resulted in: summed siRNA score for cisplatin death 1.
Against RPE65 (GeneID 6121) the deposit lists summed siRNA score for cisplatin death -2.
Silencing of BMPR1B (GeneID 658) gave: summed siRNA score for cisplatin death 0.
Knock-down of C19orf73 (GeneID 55150) came out at: summed siRNA score for cisplatin death 1.
Silencing of PAFAH1B3 (GeneID 5050) came out at: summed siRNA score for cisplatin death 1.
MRPS27 (GeneID 23107) gave summed siRNA score for cisplatin death -1.
After knock-down of PIKFYVE (GeneID 200576), the screen gave summed siRNA score for cisplatin death 2.
Silencing of NCOA7 (GeneID 135112) resulted in: summed siRNA score for cisplatin death 0.
Against PKN2 (GeneID 5586) the deposit lists summed siRNA score for cisplatin death -2.
After knock-down of CRY1 (GeneID 1407), the screen gave summed siRNA score for cisplatin death -1.
GINS3 (GeneID 64785) scored summed siRNA score for cisplatin death -2.
PALS2 (GeneID 51678) scored summed siRNA score for cisplatin death 3 (active); change in cisplatin death versus control 13.5.
KIAA0408 (GeneID 9729) gave summed siRNA score for cisplatin death -1.
OR2A25 (GeneID 392138) scored summed siRNA score for cisplatin death 2.
PTPN7 (GeneID 5778) scored summed siRNA score for cisplatin death -2.
For CDC42BPG (GeneID 55561) the deposit lists summed siRNA score for cisplatin death 0.
PAK2 (GeneID 5062) gave summed siRNA score for cisplatin death 1.
With knock-down of DNM1P41 (GeneID 440299), the screen gave summed siRNA score for cisplatin death 0.
Depletion of LOC390245 resulted in: summed siRNA score for cisplatin death 0.
After knock-down of IRAG2 (GeneID 4033), the screen gave summed siRNA score for cisplatin death -3 (active); change in cisplatin death versus control -13.7.
After knock-down of PLPPR4 (GeneID 9890), the record shows summed siRNA score for cisplatin death 1.
DGKQ (GeneID 1609) showed summed siRNA score for cisplatin death 2.
Knock-down of AGO3 (GeneID 192669) came out at: summed siRNA score for cisplatin death 0.
Silencing of LOC392358 came out at: summed siRNA score for cisplatin death 1.
Against GTF3C1 (GeneID 2975) the deposit lists summed siRNA score for cisplatin death 1.
Silencing of AKR7A3 (GeneID 22977) gave: summed siRNA score for cisplatin death -1.
Knock-down of LOC442248 resulted in: summed siRNA score for cisplatin death 1.
Silencing of LOC401581 came out at: summed siRNA score for cisplatin death 0.
For BIRC6 (GeneID 57448), the entry reads summed siRNA score for cisplatin death -2.
For VTI1A (GeneID 143187), the values are summed siRNA score for cisplatin death 0.
Depletion of RIOX1 (GeneID 79697) resulted in: summed siRNA score for cisplatin death 0.

Individual results from above.
AKR7A3 (GeneID 22977), summed siRNA score for cisplatin death → -1
Under “change in cisplatin death versus control”, PALS2 (GeneID 51678) shows 13.5 (active)
For “summed siRNA score for cisplatin death”, IRAG2 (GeneID 4033) reads -3 (active)
Result of SERPINB8 (GeneID 5271) in “summed siRNA score for cisplatin death”: 1
For “summed siRNA score for cisplatin death”, LOC401581 has 0
Result of TSPAN33 (GeneID 340348) in “summed siRNA score for cisplatin death”: -1
